Values of other authors as cited in US7605257B2, “Processes for preparing water-soluble polyethylene glycol conjugates of macrolide immunosuppressants” (Wyeth, priority 2006, dated 2009).

| Structure (SMILES) | solubility in water |
| --- | --- |
| CO[C@H]1C[C@@H]2CC[C@@H](C)[C@@](O)(O2)C(=O)C(=O)N2CCCC[C@H]2C(=O)O[C@H]([C@H](C)C[C@@H]2CC[C@@H](O)[C@H](OC)C2)CC(=O)[C@H](C)/C=C(\C)[C@@H](O)[C@@H](OC)C(=O)[C@H](C)C[C@H](C)/C=C/C=C/C=C/1C [Rapamycin, rapamycin] | about 2.6 μg/mL |
| C=CC[C@@H]1/C=C(\C)C[C@H](C)C[C@H](OC)[C@H]2O[C@@](O)(C(=O)C(=O)N3CCCC[C@H]3C(=O)O[C@H](/C(C)=C/[C@@H]3CC[C@@H](O)[C@H](OC)C3)[C@H](C)[C@@H](O)CC1=O)[C@H](C)C[C@@H]2OC.O [tacrolimus] | 12 µg/mL |
